The source of these data is article PMC6053364.

The chains behind the UniProt entries cited, without tags or fusion partners.
UniProt Q09028: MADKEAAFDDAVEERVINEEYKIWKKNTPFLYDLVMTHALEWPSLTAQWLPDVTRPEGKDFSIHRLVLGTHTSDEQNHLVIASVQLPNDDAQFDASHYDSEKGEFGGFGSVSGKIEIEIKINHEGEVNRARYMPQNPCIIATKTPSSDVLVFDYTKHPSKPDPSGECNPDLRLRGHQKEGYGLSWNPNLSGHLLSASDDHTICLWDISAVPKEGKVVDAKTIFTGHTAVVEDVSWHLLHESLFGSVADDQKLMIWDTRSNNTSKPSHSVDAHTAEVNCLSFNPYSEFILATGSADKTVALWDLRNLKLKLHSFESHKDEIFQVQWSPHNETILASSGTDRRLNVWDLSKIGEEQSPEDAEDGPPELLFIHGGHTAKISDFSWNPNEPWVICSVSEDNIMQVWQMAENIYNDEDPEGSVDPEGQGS
UniProt Q15022: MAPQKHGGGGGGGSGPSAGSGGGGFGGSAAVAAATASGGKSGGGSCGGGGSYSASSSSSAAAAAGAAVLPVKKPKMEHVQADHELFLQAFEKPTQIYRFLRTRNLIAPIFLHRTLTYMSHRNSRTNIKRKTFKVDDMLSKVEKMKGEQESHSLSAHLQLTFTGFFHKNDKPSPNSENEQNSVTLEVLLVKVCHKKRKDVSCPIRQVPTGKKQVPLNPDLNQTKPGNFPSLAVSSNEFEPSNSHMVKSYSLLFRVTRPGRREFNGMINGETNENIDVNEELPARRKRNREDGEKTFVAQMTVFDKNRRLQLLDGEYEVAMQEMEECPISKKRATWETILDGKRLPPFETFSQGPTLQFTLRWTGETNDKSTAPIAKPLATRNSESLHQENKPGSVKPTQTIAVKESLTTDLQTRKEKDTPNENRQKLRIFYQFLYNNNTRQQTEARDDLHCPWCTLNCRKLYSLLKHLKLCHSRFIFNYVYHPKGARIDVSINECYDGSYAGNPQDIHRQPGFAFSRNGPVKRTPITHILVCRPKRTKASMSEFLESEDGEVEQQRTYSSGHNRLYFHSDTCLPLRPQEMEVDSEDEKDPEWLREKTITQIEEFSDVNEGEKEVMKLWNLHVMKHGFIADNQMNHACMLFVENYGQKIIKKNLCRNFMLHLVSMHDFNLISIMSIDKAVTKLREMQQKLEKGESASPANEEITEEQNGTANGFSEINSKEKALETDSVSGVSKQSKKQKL

Experiment [1] concerns the target T1, ARMC12, stably overexpressed in SH-SY5Y and SK-N-SH cells (human) (UniProt Q5T9G4).
T1 sequence: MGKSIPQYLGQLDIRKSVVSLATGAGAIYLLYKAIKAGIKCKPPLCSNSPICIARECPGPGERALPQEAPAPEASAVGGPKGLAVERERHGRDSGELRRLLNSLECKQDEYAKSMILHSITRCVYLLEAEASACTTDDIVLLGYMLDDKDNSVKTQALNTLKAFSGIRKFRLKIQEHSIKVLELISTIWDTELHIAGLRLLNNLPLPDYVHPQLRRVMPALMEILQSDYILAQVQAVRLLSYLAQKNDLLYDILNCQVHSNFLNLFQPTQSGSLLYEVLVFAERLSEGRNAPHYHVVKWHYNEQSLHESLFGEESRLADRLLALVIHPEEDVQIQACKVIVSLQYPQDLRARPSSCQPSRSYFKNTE
As to the kind of experiment: co-IP; SH-SY5Y and SK-N-SH cells stably transfected with empty vector (mock) or ARMC12; western blot.

Experiment [2] addresses T2, armadillo repeat containing 12 (ARMC12), endogenous (human (endogenous in BE(2)-C and IMR32)) (UniProt Q5T9G4).
T2 sequence: T1 sequence
As to the kind of experiment: co-IP; endogenous proteins in BE(2)-C and IMR32 cells, 10 ug antibody, western blot, IgG as negative control; also cells stably transfected with sh-Scb, sh-ARMC12 #1, sh-RBBP4 #2, sh-EZH2 #1 or sh-SUZ12 #1. A general note: In western blotting, separated proteins are transferred to a membrane and probed.

Experiment [3] has as its target T3, ARMC12 in pBiFC-VN173, wild type (human) (UniProt Q5T9G4).
T3 sequence: T1 sequence
In words: split reporter; BiFC: pBiFC-VN173-ARMC12 and pBiFC-VC155-RBBP4 cotransfected into SH-SY5Y cells for 24 h, grown a further 10 h at 37 C, confocal microscopy.

Experiment [4] has as its target T4, FLAG-tagged ARMC12, wild type (human) (UniProt Q5T9G4).
T4 sequence: T1 sequence
In words: co-IP; SH-SY5Y cells cotransfected with FLAG-tagged ARMC12 (wild type, truncates or mutant) and HA-tagged RBBP4 (wild type, truncates or mutant); FLAG and HA antibodies, western blot.

No constants are given. Whether binding was seen depends on the method and setting. Binding seen in cells or lysates may run through a third protein. Some results given as binding are weak or reduced against the parent protein; the word gives no strength. For part of these data: Tags and fused reporters may be left off the sequences shown.

“retinoblastoma binding protein 4 (RBBP4), endogenous (from UniProt Q09028 1-425)”: the binding entry in experiment [1] and in experiment [2] was “binds” throughout.

For the substance “suppressor of zeste 12 (SUZ12), endogenous (from UniProt Q15022 1-739)”, the binding result in experiment [1] and in experiment [2] was “binds” in each case.

As for “RBBP4 in pBiFC-VC155, wild type (from UniProt Q09028 1-425)”, the binding result in experiment [3] is reported as “binds”.

“HA-tagged RBBP4, wild type (from UniProt Q09028 1-425)”: the binding result in experiment [4] is “binds”.
